# Results deposited as PubChem BioAssay AID1224828 (NIAID, 2016).
# Screen: 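Regulators linking TLR4 signalling to p65 nuclear translocation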 (primary screen)
# Cell system: mouse RAW264.7 G9 macrophage reporter cells (GFP-p65, Tnf promoter-mCherry)
# Knock-down reagent: siRNA pool against mouse genes, 100 nM
# Time to read-out: 2 days siRNA transfection, then 40 min LPS before fixation
# Treatment: LPS (Salmonella minnesota R595) at 10 ng/ml
# Measurement: 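Imaged p65 nuclear translocation ratio, normalised to the plate median, converted to robust z-scores and averaged across two replicates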
# Reading the numbers: p65 translocation robust z-score: higher = more nuclear NF-kappaB p65 after LPS than the plate median; nuclear/cytoplasmic p65 ratio: higher = more nuclear NF-kappaB p65
# Active means: 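Called active when z exceeds 3.3 or falls under -1.56 (median of Tlr4 controls), giving activity score of at least 50; no calls for control wells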
# Meaning of the calls: active = hit (p65 shift raised or lowered); inactive = no clear change
# Shown is an unselected part of about 17,000 reagents tested. 762 of them (4.5%) were called active. 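Active calls include both raised and lowered p65 entry, mostly lowered; wells with fewer than 50 cells lack a z-score.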 Raw values vary from plate to plate and are shown uncorrected. A number with no mark means an inactive call. Reagent sequences are not shown.
gene,PubChem SID,p65 translocation robust z-score,"nuclear/cytoplasmic p65 ratio, rep 1","nuclear/cytoplasmic p65 ratio, rep 2",low cell count flag
"Rabggta (Rab geranylgeranyl transferase, a subunit)",SID315471385,-0.38,1.51,1.42,enough cells to score
"Col4a6 (collagen, type IV, alpha 6)",SID315476057,-0.89,1.35,1.26,enough cells to score
Ptpru (protein tyrosine phosphatase receptor type U),SID315468816,1.48,1.72,1.73,enough cells to score
"Atp9a (ATPase, class II, type 9A)",SID315465570,-0.34,1.54,1.59,enough cells to score
"Serpina1a (serine (or cysteine) peptidase inhibitor, clade A, member 1A)",SID315469404,-0.19,1.46,1.6,enough cells to score
Dkk4 (dickkopf WNT signaling pathway inhibitor 4),SID315479140,1.78,1.76,1.54,enough cells to score
Nrp1 (neuropilin 1),SID315468244,-0.38,1.4,1.36,enough cells to score
Cpox (coproporphyrinogen oxidase),SID315466098,-0.31,1.5,1.28,enough cells to score
Echdc3 (enoyl Coenzyme A hydratase domain containing 3),SID315473263,0.43,1.52,1.33,enough cells to score
Snx12 (sorting nexin 12),SID315471330,,1.15,1.16,fewer than 50 cells per well; well left out of scoring
Slco4a1,SID315476697,,0.964,1.07,fewer than 50 cells per well; well left out of scoring
Dsg4 (desmoglein 4),SID315467716,-0.77,1.4,1.23,enough cells to score
Arl14ep (ADP-ribosylation factor-like 14 effector protein),SID315477761,-1.4,1.27,1.22,enough cells to score
Dusp15 (dual specificity phosphatase-like 15),SID315479905,-0.12,1.54,1.29,enough cells to score
Nat8f4 (N-acetyltransferase 8 (GCN5-related) family member 4),SID315475140,,1.2,1.37,fewer than 50 cells per well; well left out of scoring
Tmem26 (transmembrane protein 26),SID315481448,-0.21,1.49,1.74,enough cells to score
Gabbr1 (gamma-aminobutyric acid type B receptor subunit 1),SID315471222,0.54,1.58,1.66,enough cells to score
Tle4 (transducin-like enhancer of split 4),SID315469739,0.04,1.48,1.57,enough cells to score
Cpt1c (carnitine palmitoyltransferase 1c),SID315475534,-0.09,1.47,1.87,enough cells to score
"Cyp4f16 (cytochrome P450, family 4, subfamily f, polypeptide 16)",SID315473977,-0.29,1.55,1.72,enough cells to score
Or8g55 (olfactory receptor family 8 subfamily G member 55),SID315480263,-0.2,1.5,1.15,enough cells to score
Zpbp2 (zona pellucida binding protein 2),SID315473795,-0.42,1.34,1.37,enough cells to score
Ceacam19 (CEA cell adhesion molecule 19),SID315481195,-0.66,1.4,1.38,enough cells to score
"Pkm (pyruvate kinase, muscle)",SID315468535,-0.49,1.61,1.25,enough cells to score
Macroh2a1 (macroH2A.1 histone),SID315470479,0.99,1.58,1.48,enough cells to score
Fndc4 (fibronectin type III domain containing 4),SID315472090,2.18,1.88,1.79,enough cells to score
"Cyp17a1 (cytochrome P450, family 17, subfamily a, polypeptide 1)",SID315466214,0.99,1.63,1.49,enough cells to score
Rpgr (retinitis pigmentosa GTPase regulator),SID315469005,-0.01,1.44,1.2,enough cells to score
Mrps12 (mitochondrial ribosomal protein S12),SID315470291,-0.99,1.56,1.5,enough cells to score
Homer1 (homer scaffolding protein 1),SID315470435,-0.3,1.51,1.58,enough cells to score
Dppa4 (developmental pluripotency associated 4),SID315474764,-0.55,1.39,1.19,enough cells to score
Exoc6 (exocyst complex component 6),SID315476596,-1.2,1.16,1.12,enough cells to score
Sppl2c (signal peptide peptidase 2C),SID315479377,-0.02,1.68,1.57,enough cells to score
"Cntln (centlein, centrosomal protein)",SID315481666,-0.88,1.51,1.36,enough cells to score
"Cntln (centlein, centrosomal protein)",SID315481667,-0.31,1.51,1.51,enough cells to score
4931431C16Rik (RIKEN cDNA 4931431C16 gene),SID315474954,,1.3,1.32,fewer than 50 cells per well; well left out of scoring
Hs3st3b1 (heparan sulfate (glucosamine) 3-O-sulfotransferase 3B1),SID315471294,,1.39,1.15,fewer than 50 cells per well; well left out of scoring
Gtpbp3 (GTP binding protein 3),SID315474025,0.28,1.74,1.54,enough cells to score
Lrp2bp (Lrp2 binding protein),SID315473130,,1.08,1.02,fewer than 50 cells per well; well left out of scoring
Stac (src homology three (SH3) and cysteine rich domain),SID315469477,-0.28,1.57,1.46,enough cells to score
Dpysl5 (dihydropyrimidinase-like 5),SID315472154,-0.36,1.41,1.3,enough cells to score
Mcpt4 (mast cell protease 4),SID315467870,-0.1,1.71,1.34,enough cells to score
Cdca3 (cell division cycle associated 3),SID315467021,-0.52,1.56,1.65,enough cells to score
Spef2 (sperm flagellar 2),SID315481276,,1.31,1.17,fewer than 50 cells per well; well left out of scoring
Reep2 (receptor accessory protein 2),SID315478416,0.97,1.82,1.89,enough cells to score
Vmn1r50 (vomeronasal 1 receptor 50),SID315476980,-0.7,1.3,1.1,enough cells to score
Cbln1 (cerebellin 1 precursor protein),SID315465796,-0.04,1.55,1.82,enough cells to score
Esrrg (estrogen-related receptor gamma),SID315470365,-1.6 (active),1.19,1.22,enough cells to score
"Psmf1 (proteasome (prosome, macropain) inhibitor subunit 1)",SID315478653,,1.43,1.22,fewer than 50 cells per well; well left out of scoring
Afap1l2 (actin filament associated protein 1-like 2),SID315478484,0.03,1.72,1.4,enough cells to score
Ncmap (noncompact myelin associated protein),SID315478833,-0.49,1.22,1.46,enough cells to score
"Klrk1 (killer cell lectin-like receptor subfamily K, member 1)",SID315470512,,1.24,1.26,fewer than 50 cells per well; well left out of scoring
Gmppb (GDP-mannose pyrophosphorylase B),SID315481633,-0.14,1.67,1.48,enough cells to score
Or10d4c (olfactory receptor family 10 subfamily D member 4C),SID315480173,,1.09,1.15,fewer than 50 cells per well; well left out of scoring
Gpx4 (glutathione peroxidase 4),SID315467009,,1.48,1.4,fewer than 50 cells per well; well left out of scoring
Dynlt4 (dynein light chain Tctex-type 4),SID315479635,,1.07,1.2,fewer than 50 cells per well; well left out of scoring
Olfr908 (olfactory receptor 908),SID315480504,-0.89,1.46,1.14,enough cells to score
Ift56 (intraflagellar transport 56),SID315480744,0.27,1.43,1.62,enough cells to score
Sema4b,SID315469178,-0.34,1.36,1.21,enough cells to score

Ordered by “nuclear/cytoplasmic p65 ratio, rep 1” (lowest first): 9 of the entries above
gene,PubChem SID,p65 translocation robust z-score,"nuclear/cytoplasmic p65 ratio, rep 1","nuclear/cytoplasmic p65 ratio, rep 2",low cell count flag
Esrrg (estrogen-related receptor gamma),SID315470365,-1.6 (active),1.19,1.22,enough cells to score
Vmn1r50 (vomeronasal 1 receptor 50),SID315476980,-0.7,1.3,1.1,enough cells to score
Spef2 (sperm flagellar 2),SID315481276,,1.31,1.17,fewer than 50 cells per well; well left out of scoring
"Psmf1 (proteasome (prosome, macropain) inhibitor subunit 1)",SID315478653,,1.43,1.22,fewer than 50 cells per well; well left out of scoring
Cbln1 (cerebellin 1 precursor protein),SID315465796,-0.04,1.55,1.82,enough cells to score
Cdca3 (cell division cycle associated 3),SID315467021,-0.52,1.56,1.65,enough cells to score
Mcpt4 (mast cell protease 4),SID315467870,-0.1,1.71,1.34,enough cells to score
Afap1l2 (actin filament associated protein 1-like 2),SID315478484,0.03,1.72,1.4,enough cells to score
Reep2 (receptor accessory protein 2),SID315478416,0.97,1.82,1.89,enough cells to score
